The assay is described as follows: qHTS Assay for Modulators of Lamin A Splicing. To be noted: HeLa LMNA splicing GFP/RFP minigene ratio, 48 h. In short, it runs like this:
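S3 HeLa cells stably expressing lamin A-EGFP splicing minigene plus DsRed2, 600 cells/well, 48 h compound exposure at 37C. Laser-scanning cytometry; analysed as GFP (500-530 nm)/RFP (575-640 nm) total intensity ratio; 0.5% DMSO vehicle.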
Background: Quantitative high-throughput screening tests each substance at several concentrations.

The mark [1] stands for this setting: measured here: GFP splicing reporter channel.
The mark [2] stands for this setting: measured here: RFP viability control channel.

Each structure is given as a SMILES string. The list shows a part of the results. These are further read-outs of the screen, such as a control signal, another cell line or another target. No call is given for them. The list favours compounds with an active or inconclusive main result. Potencies come from curve fits of mixed quality, noted in brackets.

Usually AC50 stands for the concentration giving half of the maximal activity seen. On to `COc1ccc(Nc2ncnc3sc4c(c23)CCCC4)cc1`, for which, under setting [1], the AC50 was 0.631 µM [rising, single point]. Take `CC(C)(C)c1ccc(C2CC2C(=O)N/N=C\c2ccc[nH]2)cc1` (stereo unspecified): the AC50 by setting is: under setting [1], 5.62 µM [falling, partial curve, poor fit]; under setting [2], 6.31 µM [falling, partial curve, poor fit]. Regarding `O=C(/C=C\NCC(=O)c1ccccc1)c1ccc2ccccc2c1`, the AC50 is 12.6 µM [rising, single point] under setting [1] and 12.6 µM [rising, partial curve] under setting [2]. Turning to `CC(C)CC(NC(=O)c1ccccc1NC(=O)c1ccccc1)C(=O)O` (stereo unspecified), the AC50 under setting [2] was 22.4 µM [falling, single point]. Turning to `CCN(CC)S(=O)(=O)c1ccc2c(c1)N(CC(=O)N1CCN(c3cccc(C)c3C)CC1)C(=O)CO2`, the AC50 under setting [1] was 25.1 µM [falling, single point].

As to `O=Cc1cn(-c2ccccc2)nc1-c1ccc2c(c1)OCCO2`, under setting [2], the AC50 is 14.1 µM [rising, single point].

Regarding `COc1ccc(/C=C/C(=O)Nc2ccc(-n3nncc3-c3ccc(OC)c(OC)c3)cc2)cc1OC`, the AC50 under setting [2] was 7.94 µM [rising, partial curve]. `O=C(CSc1n[nH]c(-c2ccccc2Cl)n1)NCCc1ccccc1`: the AC50 under setting [1] is 1 µM [rising, full curve]. As to `C=C(C)COc1ccc(-c2[nH]ncc2-c2ccccc2)c(O)c1`, the AC50 is 28.2 µM [falling, single point] under setting [1] and 11.2 µM [falling, single point] under setting [2]. `C/C(=N\N1C(=O)c2ccccc2NC1c1ccccc1)c1ccccc1O` (stereo unspecified): the AC50 is, setting by setting: under setting [1], 35.5 µM [falling, single point]; under setting [2], 31.6 µM [falling, single point]. Regarding `O=C(NCC1CCCO1)c1cc(C(=O)C2CCCCC2)c[nH]1` (stereo unspecified), the AC50 under setting [1] is 0.0316 µM [rising, full curve, poor fit].

In the case of `CCOC(=O)c1[nH]c(C)c(C(=O)N2CCN(c3ccc(F)cc3)CC2)c1C`, the AC50 under setting [2] was 4.47 µM [rising, single point]. On the same count and under the same terms, under `Cc1ccc(NC(=S)NNC(=O)c2ccccc2OC(F)F)cc1` stands 7.08 µM [rising, single point].

Take `Cc1nn2c(=O)cc(COC(=O)c3cccc(NC(=O)COc4ccccc4C)c3)nc2s1`: the AC50 under setting [1] is 35.5 µM [falling, single point] and the AC50 under setting [2] was 35.5 µM [falling, single point]. In the case of `O=C(CSc1nnc(COc2ccc(Br)cc2)o1)N1CCOCC1`, the AC50 under setting [1] is 3.55 µM [falling, full curve] and the AC50 under setting [2] is 3.98 µM [falling, full curve]. Take `COc1ccc(C(=O)N2CCN(c3nc4cc(C)ccc4cc3C#N)CC2)c(OC)c1`: under setting [2], the AC50 is 20 µM [rising, partial curve, poor fit]. In the case of `CCNC(=O)c1sc2cc(C)ccc2c1Cl`, the AC50 reads like this: under setting [1], 0.398 µM [falling, partial curve]; under setting [2], 0.0355 µM [falling, full curve, poor fit]. Consider `CC(C)C[C@H](NC(=O)Nc1cccc(C(F)(F)F)c1)C(=O)O`, for which the AC50 under setting [1] is 0.398 µM [falling, partial curve]. Regarding `Cc1c(C2C(C#N)=C(N)N(c3cccc([N+](=O)[O-])c3)C3=C2C(=O)CCC3)cnn1C` (stereo unspecified), the AC50 under setting [2] is 0.0224 µM [falling, full curve, poor fit].

For the compound `CCN(CC)CCSc1c(C(C)C)cnc2c1c(=O)n(C)c(=O)n2C`, under setting [1], the AC50 was 0.708 µM [rising, single point]. In the case of `O=S(=O)(c1ccc2nc(SCc3cccc(Cl)c3)[nH]c2c1)N1CCOCC1`, the AC50 is, setting by setting: under setting [1], 3.55 µM [rising, single point]; under setting [2], 35.5 µM [rising, single point]. As to `O=C(CN1C(=O)COc2ccc(S(=O)(=O)NC3CCCC3)cc21)NCc1ccc(Cl)cc1`, the AC50 reads like this: under setting [1], 0.158 µM [rising, full curve, poor fit]; under setting [2], 0.178 µM [rising, full curve, poor fit].

As for `Cc1ccc(C(=O)c2sc3c(c2N)c(=O)[nH]c(=O)n3CCc2ccccc2)cc1`, the AC50 under setting [2] was 3.16 µM [rising, partial curve, poor fit]. For `COc1cccc(/C=C/C(=O)NCc2cn3cc(Cl)ccc3n2)c1`, the AC50 under setting [1] is 35.5 µM [rising, single point]. Regarding `c1ccc2oc(-c3[nH]ncc3CN(Cc3ccncc3)CC3CCCO3)cc2c1` (stereo unspecified), the AC50 is 0.00891 µM [falling, partial curve, poor fit] under setting [1] and 0.0891 µM [falling, partial curve, poor fit] under setting [2]. With `CCCn1c2ccccc2c2nc3ccccc3nc21`, the AC50 under setting [2] was 22.4 µM [rising, single point].

In the case of `COc1ccccc1/C=C/C(=O)OCC(=O)Nc1c(F)cccc1F`, the AC50 under setting [1] was 35.5 µM [rising, partial curve, poor fit]. As for `C(=N\N=C\c1ccccc1)/c1ccccc1`, under setting [2], the AC50 is 0.0794 µM [falling, single point]. `C=CCN1C(=O)/C(=C/c2ccc(O)cc2)S/C1=N/c1nccs1`: the AC50 under setting [2] is 14.1 µM [rising, single point]. Regarding `N#C/C(=C\C=C\c1ccccc1)C(=O)NCc1ccco1`, the AC50 under setting [2] was 17.8 µM [rising, single point]. On to `N#CC1=C(N2CCCCC2)c2cc3c(n2C1=O)CCCC3`, for which the AC50 under setting [2] was 0.891 µM [rising, full curve, poor fit].

Take `CC(C)(C)c1ccc(OC(=O)c2ccc3snnc3c2)cc1`: under setting [1], the AC50 is 0.0501 µM [falling, partial curve].

On to `OC(CN1CCN(c2ccccn2)CC1)Cn1c2ccccc2c2ccccc21` (stereo unspecified), for which the AC50 under setting [2] is 12.6 µM [rising, single point].

Turning to `CCc1ccc(OCC(=O)O/N=C(\N)Cc2ccc([N+](=O)[O-])cc2)cc1`, under setting [2], the AC50 was 35.5 µM [rising, single point]. As to `CC(C)C(=O)Nc1ccc(NC(=O)c2cccc(F)c2)cn1`, the AC50 under setting [1] was 8.91 µM [rising, partial curve, poor fit]. With `Clc1nc(-c2cccnc2)nc2scc(-c3ccccc3)c12`, under setting [2], the AC50 was 6.31 µM [rising, partial curve]. In the case of `COc1ccc(-c2csc(NC3=NCCCCC3)n2)cc1`, under setting [2], the half-maximal activity concentration (AC50) was 0.708 µM [rising, single point].

For `CCN(CC)c1ccc(C2C3CCCCC3(O)CCN2CC(=O)N2CCCCC2)cc1` (stereo unspecified), the AC50 is, setting by setting: under setting [1], 35.5 µM [rising, single point]; under setting [2], 35.5 µM [rising, single point].

Regarding `CCc1ccc(C2(O)CC(C(F)(F)F)=NN2C(=O)Cc2ccc([N+](=O)[O-])cc2)cc1` (stereo unspecified), under setting [2], the AC50 is 1 µM [rising, partial curve, poor fit]. On to `CCN(CC)S(=O)(=O)c1ccc(NN)nc1`, for which the AC50 under setting [2] is 0.0355 µM [falling, full curve, poor fit].

Consider `Cc1ccc2cc(C)c3nnc(SCC(=O)c4cccs4)n3c2c1C`, for which the AC50 runs as follows: under setting [1], 4.47 µM [rising, single point]; under setting [2], 4.47 µM [rising, partial curve, poor fit].

`N#CCSc1nnc(-c2ccccc2)c(-c2ccccc2)n1`: the AC50 under setting [2] was 31.6 µM [rising, single point].

As for `c1csc(CNc2nc(-c3ccoc3)nc3ccccc23)c1`, the AC50 under setting [1] is 10 µM [falling, partial curve, poor fit]. Take `O=C(Cc1ccccc1)N/N=C/c1cc2c(cc1Cl)OCO2`: the AC50 is, setting by setting: under setting [1], 12.6 µM [rising, partial curve]; under setting [2], 15.8 µM [rising, partial curve]. For `NNc1nc2c(Cl)c(Cl)ccc2s1`, under setting [2], the AC50 was 25.1 µM [rising, single point]. Turning to `O=C(O)/C=C\C(=O)Nc1ccccc1C#Cc1ccc(Br)cc1`, the AC50 under setting [1] is 35.5 µM [falling, single point] and the AC50 under setting [2] is 35.5 µM [falling, single point].

With `O=C(NCc1cc(Br)cc(Br)c1OC(=O)c1ccccc1[N+](=O)[O-])c1ccccc1`, under setting [2], the AC50 was 35.5 µM [rising, single point]. For the compound `OCCCN1CCN(CCOc2ccccc2-c2ccccc2)CC1`, under setting [2], the AC50 was 0.562 µM [rising, full curve, poor fit]. As for `Cn1c(=O)n(C)c2cc(S(=O)(=O)Nc3cc(Cl)ccc3O)ccc21`, the AC50 was 11.2 µM [falling, partial curve, poor fit] under setting [1] and 15.8 µM [falling, partial curve] under setting [2].

Regarding `COC(=O)Cc1ccc(NC(=S)N2CCN(c3cccc(O)c3)CC2)cc1`, under setting [2], the AC50 is 12.6 µM [rising, single point].

For the compound `CCCn1c(=O)[nH]c(=O)c2c1nc(-c1ccc3c(c1)OCCO3)n2CCN1CCOCC1`, under setting [2], the AC50 was 11.2 µM [rising, single point]. As for `Cc1cc(C)cc(C(=O)OCC(=O)Nc2cccc(S(=O)(=O)NC3=NCCCCC3)c2)c1`, the AC50 reads like this: under setting [1], 14.1 µM [rising, single point]; under setting [2], 31.6 µM [rising, single point].

Take `CSC1=C(C#N)C(CC(C)C)C2=C(CCCC2=O)N1` (stereo unspecified): the AC50 reads like this: under setting [1], 17.8 µM [rising, partial curve]; under setting [2], 17.8 µM [rising, partial curve]. With `CCn1c2c(c(=O)n3ncc(C(=O)Nc4cc(Cl)ccc4OC)c13)CN(Cc1ccc(OC)cc1)CC2`, the AC50 under setting [2] was 10 µM [falling, partial curve, poor fit]. On to `O=C(NCc1ccc(Cl)cc1)C1CCN(c2nn3cc(-c4ccc(F)cc4)nc3s2)CC1`, for which the AC50 runs as follows: under setting [1], 2.82 µM [falling, partial curve]; under setting [2], 5.62 µM [falling, partial curve, poor fit].

As to `O=C(N/N=C/c1ccc(Cl)cc1)c1cc2c(s1)-c1ccccc1CC2`, the AC50 under setting [2] was 3.98 µM [rising, full curve]. For `COc1ccc(S(=O)(=O)N2CCN(C(=O)c3c(C)nn(-c4ccccc4)c3Cl)CC2)cc1`, the AC50 is, setting by setting: under setting [1], 4.47 µM [falling, partial curve]; under setting [2], 5.01 µM [falling, partial curve].

(Values after PubChem BioAssay AID1487 (National Center for Advancing Translational Sciences (NCATS), 2009).)
